PubChem BioAssay AID1224830 – NIAID, 2016
The whole screen tested about 18,000 reagents; this is an unselected part. About 2,900 of them (16%) count as active. 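Calls are made per well; low scores hint the gene aids the LPS response, high scores that it dampens it.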 Entries without a mark were called inactive. Repeated entries: four replicate wells of each siRNA pool. Reagent sequences are not shown.

Aim: 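Host factors that control LPS-induced TNF expression in human macrophages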 (primary screen)
Cells: human THP-1 monocytic leukaemia cells, TNF dual-luciferase reporter clone, PMA-differentiated to macrophage-like cells
Reagent: siRNA pool against human genes, 50 nM
Timing: LPS for 4 h, given about 3 days after siRNA transfection
Challenge: bacterial LPS (TLR4 ligand), 10 ng/ml
Measurement: 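TNF firefly reporter luminescence divided by renilla, normalised to the plate median, then turned into a robust z-score for each replicate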
Scale: TNF reporter robust z-score: higher = stronger TNF reporter response to LPS
Active means: 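a well is active when its z-score exceeds 2.8 or falls below -1.5; control wells carry no call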

OR6N2 (GeneID 81442): TNF reporter robust z-score = 0.39
OR6N2 (GeneID 81442): TNF reporter robust z-score = 0.84
OR6N2 (GeneID 81442): TNF reporter robust z-score = 0.96
OR6N2 (GeneID 81442): TNF reporter robust z-score = 1.82
DDX49 (GeneID 54555): TNF reporter robust z-score = -0.87
DDX49 (GeneID 54555): TNF reporter robust z-score = -0.7
DDX49 (GeneID 54555): TNF reporter robust z-score = -0.6
DDX49 (GeneID 54555): TNF reporter robust z-score = 0.15
GZMK (GeneID 3003): TNF reporter robust z-score = 0.06
GZMK (GeneID 3003): TNF reporter robust z-score = 1.07
GZMK (GeneID 3003): TNF reporter robust z-score = 0.43
GZMK (GeneID 3003): TNF reporter robust z-score = 0.53
IL4I1 (GeneID 259307): TNF reporter robust z-score = -1.48
IL4I1 (GeneID 259307): TNF reporter robust z-score = -1.96 (active)
IL4I1 (GeneID 259307): TNF reporter robust z-score = -1.75 (active)
IL4I1 (GeneID 259307): TNF reporter robust z-score = -1.3
LHX4 (GeneID 89884): TNF reporter robust z-score = -0.46
LHX4 (GeneID 89884): TNF reporter robust z-score = 0.17
LHX4 (GeneID 89884): TNF reporter robust z-score = -0.44
LHX4 (GeneID 89884): TNF reporter robust z-score = -0.25
ATG9A (GeneID 79065): TNF reporter robust z-score = -1.13
ATG9A (GeneID 79065): TNF reporter robust z-score = -0.1
ATG9A (GeneID 79065): TNF reporter robust z-score = 0.58
ATG9A (GeneID 79065): TNF reporter robust z-score = 0.72
ZNF583 (GeneID 147949): TNF reporter robust z-score = -0.38
ZNF583 (GeneID 147949): TNF reporter robust z-score = -0.57
ZNF583 (GeneID 147949): TNF reporter robust z-score = 0
ZNF583 (GeneID 147949): TNF reporter robust z-score = -0.59
DEPTOR (GeneID 64798): TNF reporter robust z-score = 0.21
DEPTOR (GeneID 64798): TNF reporter robust z-score = 0.83
DEPTOR (GeneID 64798): TNF reporter robust z-score = 0.22
DEPTOR (GeneID 64798): TNF reporter robust z-score = 1.01
LYVE1 (GeneID 10894): TNF reporter robust z-score = -0.42
LYVE1 (GeneID 10894): TNF reporter robust z-score = 1.31
LYVE1 (GeneID 10894): TNF reporter robust z-score = 0.41
LYVE1 (GeneID 10894): TNF reporter robust z-score = 0.48
SH3D19 (GeneID 152503): TNF reporter robust z-score = -1.46
SH3D19 (GeneID 152503): TNF reporter robust z-score = -1.25
SH3D19 (GeneID 152503): TNF reporter robust z-score = -1.45
SH3D19 (GeneID 152503): TNF reporter robust z-score = -1.31
RSPH4A (GeneID 345895): TNF reporter robust z-score = -1.21
RSPH4A (GeneID 345895): TNF reporter robust z-score = -0.1
RSPH4A (GeneID 345895): TNF reporter robust z-score = 0.05
RSPH4A (GeneID 345895): TNF reporter robust z-score = -0.3
TSKS (GeneID 60385): TNF reporter robust z-score = -1.37
TSKS (GeneID 60385): TNF reporter robust z-score = -1.67 (active)
TSKS (GeneID 60385): TNF reporter robust z-score = -1.13
TSKS (GeneID 60385): TNF reporter robust z-score = -1.39
